In patent US11986522B2, “Immunotherapeutic composition and uses thereof” (ARAVAX PTY LTD, priority 2013, dated 2024):
For some assays here: Not every detail of the peptide structures is certain; ends, links or a residue may be inferred. Some of these results come from one statement about several compounds together. Some compounds share one range, which may span the group rather than tell each member. No end group written: not given here.

Tests used:
Format in all cases: cell-based, human
[1] = tested on: Ara h 2-specific CD4+ T-cell lines (TCL); test: TCL proliferation (3H-thymidine uptake) to Ara h 2 peptides; conditions: TCL from 16 peanut-allergic donors; for responders (most frequently recognised Ara h 2 20-mers): SI ≥2.5 positive
[2] = tested on: Ara h 1-specific CD4+ T-cell lines (TCL); test: TCL proliferation (3H-thymidine uptake) to Ara h 1 peptides; conditions: TCL from 18 peanut-allergic donors; for responders (most frequently recognised Ara h 1 20-mers): SI ≥2.5 positive
[3] = tested on: PBMC CD4+ T cells of peanut-allergic subjects; test: 7-day CFSE assay of peptide-induced CD4+ T-cell proliferation/activation within whole PBMC; conditions: screen of 25 new subjects

Row | Sequence | responder frequency (most frequently recognised Ara h 2 20-mers) [1] | responders (most frequently recognised Ara h 2 20-mers) [1] | responder frequency (most frequently recognised Ara h 1 20-mers) [2] | responders (most frequently recognised Ara h 1 20-mers) [2] | T cell responses compared with longer version containing an additional epitope [3]
1 | ANLRPCEQHLMQKIQRDEDS [Ara h 2 20-mer 5, Ara h 2 37-56] | 44-46% | 7-9 responders of 16 | – | – | –
2 | ELNEFENNQRCMCEALQQIM [Ara h 2 20-mer 11, Ara h 2 91-110] | 44-46% | 7-9 responders of 16 | – | – | –
3 | FDQRSRQFQNLQNHRIVQIE [Ara h 1 20-mer 23, Ara h 1 199-218] | – | – | 22-33% | 4-6 responders of 18 | –
4 | KEGDVFIMPAAHPVAINASS [Ara h 1 20-mer 57, Ara h 1 505-524] | – | – | 22-33% | 4-6 responders of 18 | –
5 | KRELRNLPQQCGLRAPQRCD [Ara h 2 20-mer 15, Ara h 2 127-146] | 44-46% | 7-9 responders of 16 | – | – | –
6 | NLQNHRIVQIEAKPNTLVLP [Ara h 1 20-mer 24, Ara h 1 208-227] | – | – | 22-33% | 4-6 responders of 18 | –
7 | RRCQSQLERANLRPCEQHLM [Ara h 2 20-mer 4, Ara h 2 28-47] | 44-46% | 7-9 responders of 16 | – | – | –
8 | RWSTRSSENNEGVIVKVSKE [Ara h 1 20-mer 40, Ara h 1 352-371] | – | – | 22-33% | 4-6 responders of 18 | –
9 | VFIMPAAHPVAINASS [Peptide 19, VFIMPAAHPVAINASS] | – | – | – | – | Induced equivalent T cell
